Test results taken from patent US20230128889A1, “REL/RELA/SPOT SMALL MOLECULES MODULATORS AND SCREENING METHODS” (priority 2020, published 2023).

What follows are compounds tested on RelTt^NTD6/287 (assay: smFRET of RelTt^NTD6/287 in the presence of nucleotides). Conditions: RelTt^NTD6/287, dyes at positions 6 and 287.
Design: species or system T. thermophilus

Row | Structure (SMILES) | FRET-averaged inter-dye distance RDA E
1 | Nc1ncnc2c1ncn2[C@@H]1O[C@H](COP(=O)(O)CP(=O)(O)OP(=O)(O)O)[C@@H](O)[C@H]1O [APCPP] | remained in the closed conformation
2 | Nc1nc2c(ncn2[C@@H]2O[C@H](COP(=O)(O)OP(=O)(O)O)[C@@H](O)[C@H]2O)c(=O)[nH]1 [GDP] | 70 Å
3 | Nc1nc2c(ncn2[C@@H]2O[C@H](COP(=O)(O)OP(=O)(O)O)[C@@H](OP(=O)(O)OP(=O)(O)O)[C@H]2O)c(=O)[nH]1 [ppGpp, guanosine 5′,3′ bispyrophosphate] | 64 Å
